# “And” between values parts separate entries of the source, which are not always exact repeats. Equal entries are not always repeated. In all, about 580,000 compounds went through this assay and about 6,100 (1.1%) were called active. Inconclusive means that the source gave no clear call. Such entries were picked first, then a sample of the others. The call rests on the fitted dose curve; in most records, active means well fitted inhibition curve with a large enough effect; inconclusive means small, poorly fitted or top-dose-only effect, or another doubt; inactive means no such curve, though single readings can be large or run the other way. Potencies of inconclusive entries are doubtful fits and often do not repeat.
# The chains behind the UniProt entries cited, without tags or fusion partners. Where a name states a change or a piece, a line headed by the entry shows the natural chain unless it says otherwise.
# UniProt P18054: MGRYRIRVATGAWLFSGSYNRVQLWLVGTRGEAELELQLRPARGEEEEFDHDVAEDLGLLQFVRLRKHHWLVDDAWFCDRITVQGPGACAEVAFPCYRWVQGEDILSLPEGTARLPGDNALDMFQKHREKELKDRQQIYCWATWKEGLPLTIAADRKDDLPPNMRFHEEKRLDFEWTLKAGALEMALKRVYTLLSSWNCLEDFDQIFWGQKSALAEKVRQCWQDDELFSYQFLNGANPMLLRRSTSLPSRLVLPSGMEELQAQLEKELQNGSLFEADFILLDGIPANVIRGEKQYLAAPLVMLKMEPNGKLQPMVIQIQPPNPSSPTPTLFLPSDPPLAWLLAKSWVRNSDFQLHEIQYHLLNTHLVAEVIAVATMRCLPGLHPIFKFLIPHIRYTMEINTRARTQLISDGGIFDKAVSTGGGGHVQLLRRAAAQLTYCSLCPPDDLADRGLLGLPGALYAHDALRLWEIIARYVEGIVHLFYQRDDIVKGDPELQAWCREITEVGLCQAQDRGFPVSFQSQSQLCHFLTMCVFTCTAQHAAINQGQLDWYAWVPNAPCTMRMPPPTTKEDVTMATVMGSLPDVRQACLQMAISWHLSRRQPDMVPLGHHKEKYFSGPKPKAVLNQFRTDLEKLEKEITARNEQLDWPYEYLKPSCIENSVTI
# Biological target: Polyunsaturated fatty acid lipoxygenase ALOX12 (Homo sapiens) (UniProt P18054)
# Assay: Primary qHTS assay for inhibitors of human arachidonate 12S-lipoxygenase (ALOX12): Round 2
# Details: purified 12hLO, xylenol orange hydroperoxide absorbance; activity change, negative = inhibition: at 108 µM (top of the series) unless noted
# In short: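 Hydroperoxide product was detected by ferrous iron/xylenol orange as the 573 to 405 nm absorbance ratio. Arachidonic acid at 40 uM (final) was turned over for 30 min at room temperature by 150 nM human 12hLO, pH 7.0 Hepes buffer, after 15 min compound preincubation.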
# On the % scale 0 is the no-effect control and ±100 the full control effect; potency means the concentration at half of the fitted maximal effect.
Structure (SMILES),Potency,"activity change, negative = inhibition"
Cc1cccc(NC(=O)c2cc(-c3cccnc3)nc3c(C)cccc23)n1,"inconclusive: 398 nM [inhibitor, full curve, poor fit] and inconclusive: 44.7 µM [inhibitor, partial curve, poor fit]",–
O=C(Nc1cccc(NC(=O)c2cccs2)c1)c1ccc([N+](=O)[O-])o1,inactive,–
COc1ccc2nc(NC(=O)C3=NN(c4ccccc4)C(=O)CC3)sc2c1,"inconclusive: 39.8 µM [inhibitor, partial curve]",–
COc1ccc2cc(C#N)c(N3CCN(C(=O)c4ccccc4C)CC3)nc2c1,"inconclusive: 2.51 µM [inhibitor, full curve]",–
COc1cccc(C(=O)Nc2sc3c(c2C(=O)O)CCCC3)c1,"inconclusive: 89.1 µM [inhibitor, single point]",–
COC(=O)c1ccc(CN2[C@H](C(=O)OC)C[C@@]3(O)[C@H](O)[C@H](O)[C@H](O)C[C@@H]23)cc1,"inconclusive: 28.2 µM [inhibitor, partial curve, poor fit]",–
CC(C)N(/C=C/C(=O)C(F)(F)F)C(C)C,inactive,–
COc1ccc(N=Nc2c(-c3ccc(OC)cc3)[nH]oc2=O)cc1,"inconclusive: 14.1 µM [inhibitor, partial curve, poor fit]",–
CCC(=O)Nc1nnc(-c2ccco2)o1,"inconclusive: 4.47 µM [inhibitor, full curve, poor fit]",–
O=C(c1ccc(Cl)cc1)N1CC2(CCN(Cc3cccnc3)C2)Cc2ccccc21 (stereo not drawn),"inconclusive: 56.2 µM [inhibitor, partial curve, poor fit]",–
O=C(c1cn(Cc2ccccc2)nc1-c1ccc(Cl)cc1)N1CCN(CCO)CC1,inactive,–
COc1ccc(-n2cc(C(=O)NCCc3ccc(C)cc3)c3ccccc3c2=O)cc1,inactive,–
O=C(NCc1ccco1)NNc1nc2c(-c3ccccc3)nnn2c2ccccc12,"inconclusive: 20 µM [inhibitor, partial curve, poor fit]",–
Cc1[nH]c(=O)[nH]c(=O)c1/C=N/NC(=O)CCNC(=O)OC(C)(C)C,inactive,–
CC(C)CNC(=S)N1CCN(C)CC1,"inconclusive: 0.0891 µM [inhibitor, full curve, poor fit]",–
Nc1cccc(-c2nc3ccc(C(=O)c4ccccc4)cc3[nH]2)c1,"inconclusive: 50.1 µM [inhibitor, single point]",–
Cc1ccc(-c2nc3ccc(Cl)cn3c2Cc2cccc(Cl)c2)cc1,"inconclusive: 56.2 µM [inhibitor, partial curve, poor fit]",–
COc1cc(-c2cc(N)n(S(=O)(=O)c3ccccc3)n2)cc(OC)c1OC,"inconclusive: 7.94 µM [inhibitor, full curve, poor fit]",–
CC1=C/C(=N\NC(=S)Nc2ccc(F)cc2)CC1,"inconclusive: 50.1 µM [inhibitor, partial curve, poor fit]",–
COCC(=O)N1CCC(N2C[C@H](O)C[C@H]2C(=O)NC2CCCCC2)CC1,"inconclusive: 28.2 µM [inhibitor, partial curve, poor fit]",–
O=C(CSc1nnc(-c2ccncc2)o1)Nc1nncs1,"inconclusive: 4.47 µM [inhibitor, full curve, poor fit]",–
COc1cc(CNCc2ccccn2)ccc1OCc1ccc(Cl)c(Cl)c1,inactive,–

# Part of the list above, with tabs:
Structure (SMILES)	Potency	activity change, negative = inhibition
COc1ccc2nc(NC(=O)C3=NN(c4ccccc4)C(=O)CC3)sc2c1	inconclusive: 39.8 µM [inhibitor, partial curve]	–
CC(C)N(/C=C/C(=O)C(F)(F)F)C(C)C	inactive	–

# Carrying on.

Structure (SMILES),Potency,"activity change, negative = inhibition"
Cc1ccc(CN(C(=O)c2ccco2)C(C(=O)NC2CCCC2)c2ccc(N3CCOCC3)cc2)cc1 (stereo not drawn),inactive,–
C=CCNc1ncnc2c1[nH]c1ccccc12,inactive,–
CN1CC(=O)N(C2CCCNCC2)Cc2c(NCC(C)(C)C)ncnc21 (stereo not drawn),"inconclusive: 3.16 µM [inhibitor, full curve]",–
CCc1ccccc1NC(=O)N1CCC(N2CCN(Cc3ccccn3)C(=O)C2=O)CC1,inactive,–
COc1ccc2cc3cc(C(=O)NCc4cccs4)oc3nc2c1,inactive,–
CCN1CCCC1CNC(=O)c1ccc2c(c1)N(Cc1cccc(Cl)c1)C(=O)c1ccccc1S2(=O)=O (stereo not drawn),"inconclusive: 50.1 µM [inhibitor, partial curve]",–
O=C(NC(=S)Nc1ccc(S(=O)(=O)Nc2ccccc2)cc1)C1CC1,"inconclusive: 56.2 µM [inhibitor, partial curve, poor fit]",–
Cc1ccccc1NC(=O)c1sc(NC(=O)COc2ccccc2)c(C#N)c1C,inactive,–
Cc1cccc(C)c1NC(=O)COC(=O)c1c2c(nc3ccccc13)/C(=C\c1ccc3c(c1)OCO3)CCC2,inactive,–
COc1ccc(Nc2nc(N3CCCC3)c3ccccc3n2)cc1,"inconclusive: 126 µM [inhibitor, single point]",–
Cc1cc(S(=O)(=O)Nc2ccc(F)cc2)ccc1OCC(=O)NCc1ccc2c(c1)OCO2,"inconclusive: 70.8 µM [inhibitor, partial curve, poor fit]",–
COc1ccc(Cl)cc1NC(=O)c1nc2ccccc2nc1N1CCCC1,–,inconclusive: -37.8% [inhibitor]
Nc1cc(C(=O)OCC(=O)NCCCc2ccccc2)ccc1Cl,"inconclusive: 28.2 µM [inhibitor, partial curve, poor fit]",–
Cc1cc(Cl)ccc1OCCCC(=O)NO,"inconclusive: 15.8 µM [inhibitor, full curve, poor fit]",–
O=C(O)c1ccc(CNCc2ccsc2)cc1,"inconclusive: 44.7 µM [inhibitor, partial curve, poor fit]",–
Cc1ccc(/C=C(\C#N)C(=O)Nc2cccc3ncccc23)o1,"inconclusive: 44.7 µM [inhibitor, partial curve, poor fit]",–
COc1ccc(NC2CCCN(C(=O)CCc3scnc3C)C2)cc1 (stereo not drawn),inactive,–
Cc1ccc(C(=O)N2CCc3ccccc32)cc1[N+](=O)[O-],inactive,–
NS(=O)(=O)c1ccc(NC(=O)c2cc(-c3cccs3)nc3ccccc23)cc1,"inconclusive: 56.2 µM [inhibitor, partial curve, poor fit]",–
CC1=CC(C)(C)n2c(O)c(N=NC(N)=S)c3c(C)ccc1c32,inactive,–
CCOc1cc(/C=C2\SC(=O)N(CC(=O)Nc3ccccc3F)C2=O)cc([N+](=O)[O-])c1O,"inconclusive: 44.7 µM [inhibitor, partial curve, poor fit]",–

# — PubChem BioAssay AID1671190 (National Center for Advancing Translational Sciences (NCATS), 2021)
